Measured values taken from patent US20100279976A1, “USE OF ARTEMISININ AND ITS DERIVATIVES IN CANCER THERAPY” (SHANGHAI INSTITUTES FOR BIOLOGICAL SCIENCES, CAS, priority 2009, published 2010).
For at least one compound, name, drawing or mass did not settle the structure.

Experiments:
HepG2 xenograft tumors = experiment: HepG2 xenograft model in nude mice; format: in vivo; settings: Western blot
Method: Female athymic nude mice (nu/nu; 4-6 wk of age) may be obtained from Shanghai Slac Laboratory Animal Co. Ltd. All animals may be fed with commercial diet and water ad libitum. The human HCC xenograft models in mice may be as follows. Briefly, HepG2 and Hep3B cells may be re-suspended in serum-free DMEM with Matrigel basement membrane matrix at a 5:1 ratio. The cell suspension may then be injected (7×10^6 cells; total volume, 0.2 mL) into the left inguinal area of the BALB/c nude mice. The animals may be monitored for activity and physical condition everyday, and the determination of body weight and measurement of tumor mass may be done every 3 d. Tumor mass may be determined by caliper measurement in two perpendicular diameters of the implant and calculated using the formula ½a×b^2, where a stands for the long diameter and b is the short diameter. The animal use and care protocol is approved by the Institutional Review Board of the Institute for Nutritional Sciences, Chinese Academy of Sciences.
Nude mice bearing HepG2 and Hep3B xenografts, randomly divided into various treatment and control groups (five mice per group), may be treated orally with either ART or DHA suspended in 5% sesame oil+95% saline, at a dose of 50 or 100 mg/kg/d, or a combination of ART or DHA with gemcitabine or with saline (as controls). […]

A2780 xenograft tumors = format: in vivo; settings: A2780 / OVCAR-3 xenograft tumors (FIG. 12C), Western blot
Method: Four to six week old female athymic nude mice (BALB/c, nu/nu) may be purchased from Shanghai Experimental Animal Center (Shanghai, China). Animal studies are approved by the Institute for Nutritional Sciences. The tumor xenograft model may be established as follows. […] Aliquots of cells (˜5×10^6 cells/0.2 ml) may be injected subcutaneously into the left inguinal area of the mice. The tumor growth and body weight of the mice may be monitored every other day. Tumor mass may be determined. Mice bearing palpable tumors (˜70 mg) may be randomly divided into treatment and control groups n=5 mice/group). CBP may be dissolved in saline, and DHA may be dissolved in cremophor EL:ethanol:saline (5:5:90, v/v/v). DHA may be administered via i.p. injection at doses of 10 and 25 mg/kg/5 days/week for 3 weeks) alone or combined with CBP (at a single dose of 120 mg/kg, once on day 0). The control group receives saline only. Mice may be killed on day 18. Tumors may be carefully excised, trimmed of extraneous fat or connective tissue, and homogenized in RIPA buffer (100 mg tumor tissue/1 ml RIPA) and prepared for immunoblotting analysis as described above.

For `C[C@H]1[C@@H](O)O[C@@H]2O[C@@]3(C)CC[C@H]4[C@H](C)CC[C@@H]1[C@@]24OO3` [DHA, dihydroartemisinin], the “activated caspase-3, cleaved PARP, Rb, p53, and the ratio of Bax/Bcl-2 in tumor tissue” value (HepG2 xenograft tumors) was “increases” and the “Bcl-2/Bax ratio in tumor” value (A2780 xenograft tumors) was “dose-dependent decease”.
